Assay results: PubChem BioAssay AID2685 (National Center for Advancing Translational Sciences (NCATS), 2010)
The other results are listed elsewhere or left out. The main result of the screen is listed elsewhere. These columns were measured beside it and carry no call. The list favours compounds with an active or inconclusive main result. Potencies come from curve fits of mixed quality, noted in brackets.

Experiment: qHTS Assay for Lipid Storage Modulators in Drosophila S3 Cells;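 for cell number change: cells counted by Cell Tracker Red CMTPX staining in the red channel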
Settings: BODIPY lipid droplet fluorescence, 18-24 h; for cell number change: measured here: cell count max response, cells fed with added oleic acid
Summary of the method: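 Laser-scanning cytometry quantifies lipid droplet accumulation (500–530 nm total intensity; droplet/cell object ratio) in oleic acid-fed (400 uM added) Drosophila S3 cells treated with a concentration series. 20 uM Triacsin C defined 100% inhibition.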

[1] = measured here: cell number channel AC50, cells fed with added oleic acid
[2] = measured here: lipid fluorescence (Fed channel) AC50, cells fed with added oleic acid

For CN(Cc1cccs1)C(=O)CCc1ccc(S(=O)(=O)N2CCOCC2)cc1, the AC50 [1] was 0.58 µM [falling, single point].
With COC(=O)C1=C(N)N(c2ccc(F)cc2)C2=C(C(=O)CCC2)C1c1ccc2c(c1)OCO2 (centres undefined) the cell number change was 7.42% and the AC50 [2] was 0.00731 µM [rising, full curve, poor fit].
For CC1CC(C)CN(CCCNC(=O)c2cc3c(=O)[nH]c4ccccc4c3n2C)C1 (centres undefined), the cell number change was -28.5% and the AC50 [2] was 0.517 µM [falling, full curve].
With CC1CN(S(=O)(=O)c2cccc(C(=O)Nc3ccc(S(=O)(=O)Nc4ncccn4)cc3)c2)CC(C)O1 (centres undefined) the cell number change was 28.2% and the AC50 [1] was 0.461 µM [falling, full curve, poor fit].
For CCN(CC)S(=O)(=O)c1ccc(NN=c2c(=O)c3ccccc3c2=O)cc1, the cell number change was 23.4% and the AC50 [2] was 3.66 µM [falling, partial curve, poor fit].
For Cc1ccccc1N(C(=O)CCC(=O)Nc1ccccn1)C(C(=O)NC(C)C)c1ccc(O)cc1 (centres undefined), the cell number change was 23.4% and the AC50 [2] was 0.116 µM [rising, single point].
In the case of Cc1ccccc1CNC(=O)C(=O)NCCC1CCCCN1S(=O)(=O)c1ccccc1 (centres undefined), the AC50 [2] is reported as 2.91 µM [falling, partial curve, poor fit].
With CCOC(=O)C1=C(C)NC2=C(C(=O)c3ccccc32)C1c1ccc(O)cc1 (centres undefined) the cell number change was 1.21% and the AC50 [2] was 0.517 µM [rising, full curve].
For COCCNC(=O)c1ccccc1-c1nc(-c2ccccc2OC)no1, the cell number change was 8.89%.
For O=C1C=C(NCC2CCCO2)CC(c2ccccc2)C1 (centres undefined), the cell number change was -1.75% and the AC50 [2] was 0.411 µM [falling, full curve, poor fit].
In the case of O=C(CSc1nccc(=O)[nH]1)NCc1ccc2c(c1)OCO2, the cell number change is reported as 32.6%, the AC50 [1] is reported as 29.1 µM [rising, single point] and the AC50 [2] is reported as 0.82 µM [rising, single point].
With COC(=O)c1cccc(N2C(=O)c3ccccc3S2(=O)=O)c1 the cell number change was -1.36%.
With O=C(CCc1ccccc1)NNC(=O)COc1ccccc1Cl the cell number change was 3.95%.
For CN1CCC(N(C)C(=O)c2ccc(Cl)c(S(=O)(=O)N3CCOCC3)c2)CC1, the AC50 [2] was 6.51 µM [falling, single point].
With CCOC(=O)N/N=C\c1ccc(OC(=O)c2ccco2)cc1 the cell number change was -40% and the AC50 [1] was 32.6 µM [falling, single point].
With C=CCNC(=O)NC(=S)c1ccccc1 the cell number change was 17.1% and the AC50 [2] was 3.26 µM [rising, single point].
For CCn1c(=O)cc(OCC(=O)Nc2nc(C)cs2)c2ccccc21, the cell number change was 47.3% and the AC50 [1] was 7.31 µM [rising, single point].
For NC1=NC(=O)/C(=C/c2c(OS(=O)(=O)c3ccc(Cl)cc3)ccc3ccccc23)S1, the cell number change was 48.1%, the AC50 [1] was 14.6 µM [rising, partial curve] and the AC50 [2] was 25.9 µM [rising, single point].
With COC(=O)c1[nH]c2ccccc2c1NC(=O)CN1CCCCCC1 the cell number change was -43.3%, the AC50 [1] was 8.2 µM [falling, partial curve, poor fit] and the AC50 [2] was 0.00461 µM [rising, full curve, poor fit].
In the case of O=C(Nc1ccc(F)cc1)NC1CCCCC1, the AC50 [2] is reported as 0.82 µM [falling, full curve].
For Brc1c(C[n+]2ccccc2)nc2ccccn12, the cell number change was 7.13%, the AC50 [1] was 6.51 µM [rising, single point] and the AC50 [2] was 2.59 µM [rising, single point].
For CCCNC(=S)NCc1ccc(Cl)cc1, the cell number change was -4.6% and the AC50 [1] was 5.17 µM [falling, single point].
In the case of COc1ccc(NC(=O)CSc2nc3ccccc3c(=O)n2CCCN2CCOCC2)c(OC)c1, the cell number change is reported as -17.5% and the AC50 [2] is reported as 0.013 µM [falling, full curve, poor fit].
In the case of CN(CC(=O)Nc1ccccc1Cl)C(=O)c1ccc(N2C(=O)CCC2=O)cc1, the cell number change is reported as -6.73% and the AC50 [2] is reported as 1.46 µM [falling, full curve].
With COC(=O)C1=C(C)NC(=S)NC1c1ccc(-c2ccccc2C(=O)OC)o1 (centres undefined) the cell number change was 34.1% and the AC50 [1] was 5.17 µM [rising, full curve, poor fit].
For CCCCc1ccc(NC(=S)NCc2ccccc2OC)cc1, the cell number change was -45.4%, the AC50 [1] was 14.6 µM [falling, single point] and the AC50 [2] was 29.1 µM [falling, single point].
For CC(C)c1cccc(C(C)C)c1NC(=O)CN1CCCC1, the cell number change was -2.25% and the AC50 [2] was 6.51 µM [rising, single point].
For CCc1ccc(N2CC(C(=O)OCC(=O)Nc3ccc(C#N)cc3)CC2=O)cc1 (centres undefined), the cell number change was -11.2% and the AC50 [2] was 2.31 µM [rising, full curve].
N#Cc1ccc(OCC(=O)Nc2nc(-c3ccncc3)cs2)cc1 showed a cell number change of 1.97%.
In the case of O=C(c1ccccc1)c1sc(N2CCOCC2)nc1-c1ccccc1, the cell number change is reported as 34.2% and the AC50 [1] is reported as 0.326 µM [rising, full curve, poor fit].
With CCc1ccccc1NC(=O)C1CCCN1C(=O)NCc1ccccc1 (centres undefined) the cell number change was 2.25% and the AC50 [2] was 0.58 µM [falling, single point].
With CCn1c(/C=C2/C(=O)N(C)c3ccccc32)nc2ccccc2c1=O the cell number change was -59.1% and the AC50 [1] was 14.6 µM [falling, partial curve, poor fit].
In the case of CCN(CC)CCCNC(=S)N(CCO)Cc1cc2cc3c(cc2[nH]c1=O)OCO3, the AC50 [2] is reported as 6.51 µM [falling, single point].
CCCN1CCN(CC(=O)Nc2nnc(CC)s2)CC1 gave a cell number change of 8.79%.
In the case of CCC(=O)Nc1ccc(C(=O)NNC(=O)c2ccc([N+](=O)[O-])cc2)cc1, the cell number change is reported as 26.8% and the AC50 [2] is reported as 0.58 µM [rising, single point].
For O=S(=O)(N/N=C/c1ccc(OC2CSC2)cc1)c1ccccc1, the cell number change was 0.253% and the AC50 [2] was 14.6 µM [falling, single point].
With O=C(CSc1nnc(C2CC2)n1-c1ccccc1)Nc1ccc(N2CCOCC2)cc1 the cell number change was 7.32% and the AC50 [2] was 2.31 µM [rising, partial curve].
With O=C(Cn1c(=O)sc2ccccc21)NCCOc1ccccc1F the cell number change was 23.9% and the AC50 [2] was 25.9 µM [rising, single point].
For COc1ccccc1-c1nnc2n1N=C(C)CS2, the cell number change was 18.7% and the AC50 [2] was 16.4 µM [rising, partial curve].
In the case of C=CCSC1=N/C(=C\c2ccc(C)o2)C(=O)S1, the AC50 [2] is reported as 5.17 µM [falling, full curve, poor fit].
